No constants are given. Whether binding was seen depends on the method and setting. Some entries that bind do so weakly or less than the wild type. For part of these data: Sequences can lack the tags named with a protein.
Tests used:
[1] = biological target: T1, Canine IL-31 Mutant 1 (alanine substitutions at positions 76, 77, 80, 81 and 84 of SEQ ID NO:1; SEQ ID NO:62) (canine); assay: ELISA, antigen coated
T1 sequence: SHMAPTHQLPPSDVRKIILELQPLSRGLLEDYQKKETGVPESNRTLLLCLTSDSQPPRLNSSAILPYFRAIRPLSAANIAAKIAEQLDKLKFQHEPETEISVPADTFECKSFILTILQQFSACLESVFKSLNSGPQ

[2] = biological target: T2, Canine IL-31 Mutant 2 (alanine substitutions at positions 13, 15, 20 and 26 of SEQ ID NO:1; SEQ ID NO:63) (canine); assay: ELISA, antigen coated
T2 sequence: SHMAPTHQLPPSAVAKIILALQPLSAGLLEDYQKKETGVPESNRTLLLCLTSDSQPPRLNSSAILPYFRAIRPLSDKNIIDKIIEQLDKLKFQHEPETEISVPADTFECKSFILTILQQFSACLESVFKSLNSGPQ

[3] = biological target: T3, Feline IL-31 (SEQ ID NO: 64) (feline); assay: ELISA, antigen coated
T3 sequence: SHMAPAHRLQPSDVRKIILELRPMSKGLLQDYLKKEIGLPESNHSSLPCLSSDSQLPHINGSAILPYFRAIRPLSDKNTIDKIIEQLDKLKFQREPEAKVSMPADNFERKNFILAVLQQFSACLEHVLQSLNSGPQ

[4] = biological target: T4, Recombinant canine IL-31 (ProSpec-Tany; amino acid residues 24-159 of Accession no. NP_001159386; SEQ ID NO:1) with C-terminal His-Tag (canine); assay: ELISA, antigen coated
T4 sequence: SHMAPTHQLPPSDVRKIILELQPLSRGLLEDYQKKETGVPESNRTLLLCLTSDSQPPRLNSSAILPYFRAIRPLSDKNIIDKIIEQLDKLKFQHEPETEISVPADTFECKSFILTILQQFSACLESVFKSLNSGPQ

[5] = biological target: T5, Canine/Human chIL-31_c123_h4 (SEQ ID NO: 65) (canine/human chimeric); assay: ELISA, protein coated (100 ng/well)
T5 sequence: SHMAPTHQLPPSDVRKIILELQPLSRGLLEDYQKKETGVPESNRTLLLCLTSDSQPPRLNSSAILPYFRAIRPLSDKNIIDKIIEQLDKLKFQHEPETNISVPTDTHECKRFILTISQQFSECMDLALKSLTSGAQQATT

[6] = biological target: T6, Canine/Human chIL-31_c12_h34 (SEQ ID NO: 66) (canine/human chimeric); assay: ELISA, protein coated (100 ng/well)
T6 sequence: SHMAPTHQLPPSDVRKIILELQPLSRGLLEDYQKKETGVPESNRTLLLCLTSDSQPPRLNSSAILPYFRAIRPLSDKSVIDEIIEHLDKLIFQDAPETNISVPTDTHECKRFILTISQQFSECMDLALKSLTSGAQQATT

[7] = biological target: T7, Canine/Human chIL-31_c1_h234 (SEQ ID NO: 67) (canine/human chimeric); assay: ELISA, protein coated (100 ng/well)
T7 sequence: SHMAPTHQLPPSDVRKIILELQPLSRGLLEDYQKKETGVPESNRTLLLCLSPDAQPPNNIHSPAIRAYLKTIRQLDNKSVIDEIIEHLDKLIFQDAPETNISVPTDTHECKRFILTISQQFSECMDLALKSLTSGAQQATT

[8] = biological target: T8, Canine IL-31_N-term (SEQ ID NO: 68) (canine); assay: ELISA, peptide coated (100 ng/well)
T8 sequence (peptide): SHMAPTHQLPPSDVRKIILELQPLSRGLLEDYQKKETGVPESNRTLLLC

[9] = biological target: T9, Canine IL-31_N-term_20_3 (SEQ ID NO: 71) (canine); assay: ELISA, peptide coated (100 ng/well)
T9 sequence (peptide): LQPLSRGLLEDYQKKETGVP

Measured: binding

B1: chimeric monoclonal antibody RA4 (chRA4) (antibody, V domains shown)
VH: QIQLVQSGPELKKPGETVKISCKASGYTFTDYSMHWVKQAPGKGLRWMGWINTETGKTIHAEDFKGRVAFSLETSASTAYLQINNLKNEDTATYFCASGRPDYWGQGTTLTVSS
VL: DIVLSQSPASLAVSLGQRATISCRASESVEYYGTSLMQWYQQKPGQPPKLLIYAASGVESGVPARFSGSGSGTDFSLIIHPVEEDDIAMYFCQQSRKVPYTFGGGTKLEIKR
notes: also called chimeric RA4; chimeric RA4.D2 antibody
binds: all assays above
